# Data reported in PubChem BioAssay AID504648 (National Center for Advancing Translational Sciences (NCATS), 2011).
# The campaign covered roughly 390,000 compounds. About 610 (0.16%) were called active. Inconclusive means that the source gave no clear call. Such entries were picked first, then a sample of the others. Calls follow the shape of the dose curve; as a rule, active = well fitted inhibition curve with a large enough effect; inconclusive = small, poorly fitted or top-dose-only effect, or effect the other way, or another doubt; inactive = no such curve, though single readings can be large or run the other way. A potency beside an inconclusive call is a rough fit, not a confirmed value.
# Experiment: Nrf2 qHTS screen for inhibitors: counterscreen for cytotoxicity
# Conditions: A549 ARE-Fluc cells, CellTiter-Fluor viability, 18-24 h; activity change, negative = cytotoxicity: at 46 µM (top of the series)
# How it was run: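 A549 ARE_Fluc cells in 5% FBS OPTI-MEM were exposed to compounds in concentration-response for 18-24 h at 37 deg C. Viability was read by CellTiter-Fluor fluorescence (Ex 405/Em 525) after 30 min, before the luciferase read.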
# % is scaled to controls: 0 for no effect and ±100 for the full control effect; potency is read from the fitted curve at half-maximal effect.
Compound,"activity change, negative = cytotoxicity",Potency
Cc1ccc(C)c(Cn2c(=O)cc(C)c3c(C)nn(-c4cccc(F)c4)c32)c1,inactive: 5.91%,–
C#CCOc1c(Br)cc(/C=C2/C(=O)ON=C2C)cc1OCC,inactive: -4.49%,–
COc1ccc(-c2nsc(NC(=O)C(C)Oc3ccc(Cl)c(C)c3)n2)cc1 (centres undefined),–,"inconclusive: 29.1 µM [falling, single point]"
CS(=O)(=O)c1ncc(Cl)c(C(=O)Nc2ccc(OC(F)F)cc2)n1,–,"inconclusive: 29.1 µM [falling, single point]"
CCOc1ccccc1N1CC(c2nc3ccccc3n2Cc2c(C)cc(C)cc2C)CC1=O (centres undefined),–,"inconclusive: 29.1 µM [falling, single point]"
O=C(NC(=S)Nc1ccccc1N1CCCCC1)c1ccccc1,–,"inconclusive: 16.4 µM [activator, partial curve, poor fit]"
O=c1oc2ccccc2c(Nc2ccc3ccccc3c2)c1[N+](=O)[O-],–,"inconclusive: 29.1 µM [falling, single point]"
COc1cc(C(=O)NCCNC(=O)c2ccco2)cc(OC)c1OC,–,"inconclusive: 18.4 µM [falling, partial curve, poor fit]"
COc1ccccc1NC(=S)N(CCc1c(C)[nH]c2ccccc12)Cc1cccs1,–,"inconclusive: 16.4 µM [falling, partial curve, poor fit]"
COc1ccc(C(CCNCc2ccc(F)cc2)c2ccc(F)cc2)cc1 (centres undefined),–,"inconclusive: 29.1 µM [falling, single point]"
O=C(NCc1ccccc1)c1nc(S(=O)(=O)Cc2ccccc2)ncc1Cl,–,"inconclusive: 25.9 µM [falling, partial curve, poor fit]"
Cc1cccn2c(=O)c3cc(C(=O)NCc4cccnc4)c(=N)n(CCCO)c3nc12,–,"inconclusive: 23.1 µM [activator, single point]"
CC1=Nc2cc(C(=O)NCCc3ccccc3)ccc2Sc2c(C)ccc(C)c21,–,"inconclusive: 6.51 µM [falling, full curve]"
CSC(=O)CC(=O)NC(=O)c1ccccc1,–,"inconclusive: 32.6 µM [activator, partial curve, poor fit]"
Cn1c(/C=C/c2cccc([N+](=O)[O-])c2)c([N+](=O)[O-])c(=O)n(C)c1=O,–,"inconclusive: 29.1 µM [falling, single point]"
Cc1cc(Br)ccc1NC(=O)CN(C)C(=O)CCSc1ccc(F)cc1,–,"inconclusive: 20.6 µM [falling, single point]"
O=C(Nc1ccc2nc(SCC(=O)N3CCCC3)sc2c1)c1cccc(Cl)c1,–,"inconclusive: 20.6 µM [falling, single point]"
Cc1cc(C(=O)N/N=C/c2ccc([N+](=O)[O-])o2)c(C)o1,inactive: -7.23%,–
Cc1ccsc1/C=C/c1ccc2cccc(O)c2n1,–,"inconclusive: 18.4 µM [falling, partial curve]"
COCCCNC(=O)C[C@H]1C[C@H](C(=O)N2CCCCC2)[C@@]2(CCc3ccccc3)c3[nH]c4ccc(Cl)cc4c3CCN2C1=O,–,"inconclusive: 29.1 µM [falling, single point]"

# Entries of single compounds, looked up by structure:
# Cc1cc(C(=O)N/N=C/c2ccc([N+](=O)[O-])o2)c(C)o1 is listed as activity change, negative = cytotoxicity: inactive: -7.23%
# O=C(NCc1ccccc1)c1nc(S(=O)(=O)Cc2ccccc2)ncc1Cl is listed as Potency: inconclusive: 25.9 µM [falling, partial curve, poor fit]

# Carrying on.

Compound,"activity change, negative = cytotoxicity",Potency
O=C1/C(=N\S(=O)(=O)c2cccs2)C([n+]2cccc(Cc3ccccc3)c2)=C([O-])c2ccccc21,–,"inconclusive: 23.1 µM [falling, single point]"
O=C(CCCN1C(=O)/C(=C/c2ccccc2)SC1=S)NCCCn1ccnc1,–,"inconclusive: 29.1 µM [falling, single point]"
O=C(O)c1cc(-c2ccc(/C=N/NC(=S)Nc3ccccc3)o2)ccc1Cl,inactive: 5.8%,–
O=C1c2cccc3cccc(c23)C(=O)N1CCN1CCN(CC(O)COCc2ccc(Cl)cc2)CC1 (centres undefined),–,"inconclusive: 29.1 µM [falling, single point]"
CC(=O)c1ccc(Nc2cc(C)nc3ccc(C)cc23)cc1,–,"inconclusive: 25.9 µM [falling, partial curve]"
COc1cccc(-c2csc(N3CCN(C(=S)Nc4ccc(Cl)cc4)CC3)n2)c1,inactive: -25%,–
CCN1CCN(c2c(S(=O)(=O)c3ccc(C)c(C)c3)cnc3ccc(F)cc23)CC1,–,"inconclusive: 11.6 µM [falling, partial curve, poor fit]"
Cc1nonc1OCCNc1ccc([N+](=O)[O-])cc1,–,"inconclusive: 13 µM [falling, partial curve]"
CN(C)/C=C/C=C1C(=O)CCCC1=O,–,"inconclusive: 18.4 µM [falling, partial curve]"
O=C(Nc1ncccn1)c1ccc(Cl)c([N+](=O)[O-])c1,–,"inconclusive: 13 µM [falling, partial curve, poor fit]"
COc1ccc(-c2cc(C(=O)OCC(=O)c3cccc([N+](=O)[O-])c3)c3cc(C)ccc3n2)cc1,–,"inconclusive: 3.26 µM [activator, partial curve, poor fit]"
C=C1C(=O)[C@@]23[C@H](O)C[C@@H]4C(C)(C)CC[C@H](O)[C@@]4(C)[C@@H]2CC[C@@H]1[C@H]3O,–,"inconclusive: 29.1 µM [falling, single point]"
O=S(=O)(c1ccc(Cl)c(NC(=S)N/N=C/c2c(F)cccc2F)c1)N1CCOCC1,inactive: -18.3%,–
COc1ccc(OC)c(-c2c3cc(O)c(=O)cc-3oc3cc(O)c(O)cc23)c1,–,active: 20.6 µM
CN(Cc1ccccc1)c1ccc(C(CC(N)=O)NC(=O)c2ccccc2)cc1[N+](=O)[O-] (centres undefined),–,"inconclusive: 14.6 µM [falling, partial curve, poor fit]"
CCOc1cc(/C=N/N=C(\N)c2nonc2N)cc(Br)c1OCc1cccc2ccccc12,–,"inconclusive: 29.1 µM [falling, single point]"
CC(=O)N(Cc1ccc(Cl)cc1)c1cnccn1,inactive: -0.259%,–
CCOC(=O)c1cc2c(=O)n3ccccc3nc2n(CC2CCCO2)c1=NC(=O)c1ccc(C)cc1 (centres undefined),–,"inconclusive: 29.1 µM [falling, single point]"
Cc1cccc2cc3c(NC(=O)C(C)(C)C)nn(CC(C)C)c3nc12,–,"inconclusive: 29.1 µM [activator, partial curve, poor fit]"
